# According to article PMC11742405:
# B1: ZYX-VC (Venus C-term) (protein, UniProt Q62523 1-564)
# chain: MAAPRPPPAISVSVSAPAFYAPQKKFAPVVAPKPKVNPFRPGDSEPPVAAGAQRAQMGRVGEIPPPPPEDFPLPPPPLIGEGDDSEGALGGAFPPPPPPMIEEPFPPAPLEEDIFPSPPPPLEEEGGPEAPTQLPPQPREKVCSIDLEIDSLSSLLDDMTKNDPFKARVSSGYVPPPVATPFVPKPSTKPAPGGTAPLPPWKTPSSSQPPPQPQAKPQVQLHVQPQAKPHVQPQPVSSANTQPRGPLSQAPTPAPKFAPVAPKFTPVVSKFSPGAPSGPGPQPNQKMVPPDAPSSVSTGSPQPPSFTYAQQKEKPLVQEKQHPQPPPAQNQNQVRSPGGPGPLTLKEVEELEQLTQQLMQDMEHPQRQSVAVNESCGKCNQPLARAQPAVRALGQLFHITCFTCHQCQQQLQGQQFYSLEGAPYCEGCYTDTLEKCNTCGQPITDRMLRATGKAYHPQCFTCVVCACPLEGTSFIVDQANQPHCVPDYHKQYAPRCSVCSEPIMPEPGRDETVRVVALDKNFHMKCYKCEDCGKPLSIEADDNGCFPLDGHVLCRKCHSARAQT
# Biological target: PRR33-VN (Venus N-term) (mouse)
# Assay: split reporter; BiFC-Venus: PRR33-VN with VC fusions transfected into 293T cells, fluorescence examined about 24 h later in living cells
binder,measurement,value
B1,binding,binds

# These are yes or no findings as the source states them, for the method shown. In cells and extracts the contact can be indirect. A result given as binding can be weak or reduced; the word gives no strength.
